Reference: PubChem BioAssay AID2685 (National Center for Advancing Translational Sciences (NCATS), 2010)
Among all 320,000 compounds or so, about 2,100 (0.66%) were called active. The shares of active, inactive and inconclusive entries below differ from those in the screen. Calls follow the shape of the dose curve; as a rule, active = well fitted inhibition curve with a large enough effect in the signal ratio, with a control signal flat (not every such curve was filed as active); inconclusive = small, poorly fitted or top-dose-only effect, or effect the other way, or a change in a side signal; inactive = flat fitted curve, though single readings scatter; the % refers to the signal ratio. Potencies of inconclusive entries are doubtful fits and often do not repeat.

test: qHTS Assay for Lipid Storage Modulators in Drosophila S3 Cells; conditions: BODIPY lipid droplet fluorescence, 18-24 h, cells fed with added oleic acid; lipid storage change, negative = inhibition: at 46.1 µM (top of the series) unless noted
How it was run: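 Drosophila S3 cells got compounds at several concentrations plus oleic acid (400 uM solution). Laser-scanning cytometry with 488 nm excitation read lipid droplets at 500-530 nm and cells at 575-640 nm. Percent activity was relative to 20 uM Triacsin C.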
% is scaled to controls: 0 for no effect and ±100 for the full control effect; potency is read from the fitted curve at half-maximal effect.

Lipid storage change, negative = inhibition, inconclusive:
Cc1cccc2nc3ccccc3nc12 11.4%
CCCCN(CCCC)CCNC(=O)CN1C(=O)CSc2ccc(S(=O)(=O)N3CCOCC3)cc21 6.67%
C/C(N)=C(/C#N)C(=O)CSc1nnc(NC(C)C)s1 18.2%
Cc1cc(-c2ccccc2)[nH]c(=O)c1C#N -20.7%
Cc1cccc(NC(=O)CN2CCN(CC(=O)NCC3(N4CCCCC4)CCCCC3)CC2)c1C
Cc1oc2cc(OCc3cnn(-c4ccccc4)c3)ccc2c(=O)c1Oc1ccccc1F -1.68%
CC(=O)Nc1ccc(C2=NN(c3ccccc3)C(c3ccccc3)C2)cc1 (configuration not stated) -19.6%
CC1=C(C(=O)Nc2cc(C)ccc2C)C(c2cccs2)NC(=S)N1 (configuration not stated) 27.2%
CCn1c(SCC(N)=O)nc2cc(S(=O)(=O)N3CCOCC3)ccc21 -39.4%
O=C(CSc1nncc(=O)[nH]1)NCc1ccccc1 1.77%
Cc1noc(C)c1CSCC(=O)Oc1ccc(N(C)S(=O)(=O)c2ccccc2)cc1 -12.5%
Cc1ccc(CN(C(=O)C(F)(F)F)C(C(=O)NC2CCCCC2)c2ccco2)cc1 (configuration not stated) -20.9%
CC(Nc1cc(N2CCN(C(=O)C(C)(C)C)CC2)ccc1[N+](=O)[O-])c1ccccc1 (configuration not stated) 318%
Cc1ccc(CC(=O)NCc2ccc(Cl)cc2)cc1 -24% [at 9.22 µM]
CCOC(=O)COn1c(-c2cccc(Cl)c2)nc2ccc([N+](=O)[O-])cc21 -1.73%
Cc1ccc(-c2n[nH]c(=O)c3ccccc23)cc1S(=O)(=O)NC(C)(C)C -26.7%
CC12CCC(C(=O)N(CCC#N)CCC#N)(CC1=O)C2(C)C (configuration not stated) -0.297%
O=C(CCNC(=O)C1CCN(S(=O)(=O)c2ccc(F)cc2)CC1)Nc1nccs1 -34.5%
CCC1SC2=NC(C)=C(C(=O)OCC(C)C)C(/C=C/c3ccccc3OC)N2C1=O (configuration not stated) 21.9%
Cn1c(=O)c2c(ncn2CC(O)CNc2cccc(Cl)c2)n(C)c1=O (configuration not stated) 8.2%
Cc1nc(CN2CCN(S(=O)(=O)c3c(Cl)cc(Br)cc3Cl)CC2)cs1
C=CCNC(=S)N1CCN(c2ncc(C(F)(F)F)cc2Cl)CC1 -20.2%
CCc1nnc(SCC(=O)Nc2ccc(N3CCOCC3)cc2)o1 -23.4%
CS(=O)(=O)c1ccc2nc(NC(=O)C3CC(=O)N(c4ccccc4)C3)sc2c1 (configuration not stated) -47%
Cc1cc(C)nc(N(C#N)Cc2ccccc2C)n1 8.21%
Cc1c(C(=O)OCC(=O)c2ccc3c(c2)OCCO3)oc2ccccc12 31.3%
NS(=O)(=O)c1ccc(CCNC(=O)c2cc3ccccc3oc2=O)cc1 -3.26%
CCOc1cc(NC(=S)NCCCN2CCOCC2)c(OCC)cc1NC(=O)C1CC1 21.4%
Cc1c(Cl)cccc1NC(=S)N(Cc1cccnc1)Cc1ccccc1Cl 36.9%
Cc1cccc(OCc2nnc(SCC(=O)O)n2Cc2ccccc2)c1 -11.8%
Cc1ccc(C(NC(=O)C(C)C)c2cc([N+](=O)[O-])c3cccnc3c2O)cc1 (configuration not stated) 14.5%
CCCCN(C)C(=O)C1CCN(Cc2cccnc2)CC1 -47.5%
Cn1c(SCC(=O)Nc2cccc(S(=O)(=O)N3CCOCC3)c2)nnc1-c1ccncc1 20.5%
COc1ccc(N=c2oc3cc(O)ccc3cc2C(=O)NCC2CCCO2)c(OC)c1 (configuration not stated) -3.24%
CCc1ccc(N(CC(=O)NCc2ccc(OC)cc2)C(=O)CCC(=O)Nc2ccccn2)cc1 23.9%
CCn1cc(C(=O)N2CCc3ccccc32)c(=O)c2cc(S(=O)(=O)N(C)C3CCCCC3)ccc21 13.1%
Cn1c(=O)c2c(nc(NCCOc3ccc(C(C)(C)C)cc3)n2C)n(C)c1=O 2.91%
CCOC(=O)C(C)CC(C)C(=O)N1CCOCCOCCN(C(=O)C(C)CC(C)C(=O)OCC)CCOCC1 (configuration not stated) -21.7%
Cc1snc(SCC(=O)N/N=C(\N)COc2ccc(F)cc2)c1C#N 8.48%
O=C(c1cc(-c2ccncc2)nc2ccc(Br)cc12)N1CCN(c2ccccn2)CC1 16.3%
COc1ccc(N2CC(C(=O)N/N=C/c3cc([N+](=O)[O-])ccc3O)CC2=O)cc1 (configuration not stated) -15.6%
CC1CCC2(CC1)NC(=O)N(CC(=O)NC(=O)NC1CCCC1)C2=O (configuration not stated) -2.13%
CCN(CC)S(=O)(=O)c1ccc(N2CCCC2)c(NC(=O)c2ccncc2)c1 3.62%
CCN(CC(=O)NCc1cccs1)C(=O)COc1ccc(C(N)=O)cc1 -30.4%
CCCCCOc1ccc(C(=O)CCC(=O)Nc2ccc(NC(C)=O)cc2)cc1 13.8%
COc1ccccc1NC(=O)c1ccc(COc2ccccc2Br)o1 -43.1%
CCCNC(=O)CN1CCC(c2nc3ccccc3[nH]2)CC1 1.83%
CN1CCN(c2ccc(C(=O)NC3CCCCC3)cc2[N+](=O)[O-])CC1 0.16%
COc1cccc(CNC(=O)CSc2nc3c(oc4ccccc43)c(=O)n2CC2CCCO2)c1 (configuration not stated) -41.4%
O=C(CSc1nnc(CNC(=O)c2ccc(F)cc2)o1)Nc1ccc2c(c1)OCO2 -0.0856%
Cc1cc(=O)n2cc(-c3ccccc3)nc2[nH]1 57.5%
O=c1cc(-c2ccccc2)nc(SCCOc2ccccc2Cl)[nH]1 11.3%
CCOc1ccc(-n2cnnn2)cc1S(=O)(=O)NC1CC1 -2.74%
CC1CCc2c(sc(NC(=O)c3ccc(N4C(=O)CCC4=O)cc3)c2C(N)=O)C1 (configuration not stated) -42.1%

Ordered by length of the SMILES (falling): some entries from above.
Lipid storage change, negative = inhibition, inconclusive:
CCOC(=O)COn1c(-c2cccc(Cl)c2)nc2ccc([N+](=O)[O-])cc21 -1.73%
Cc1oc2cc(OCc3cnn(-c4ccccc4)c3)ccc2c(=O)c1Oc1ccccc1F -1.68%
Cn1c(=O)c2c(nc(NCCOc3ccc(C(C)(C)C)cc3)n2C)n(C)c1=O 2.91%
CCc1nnc(SCC(=O)Nc2ccc(N3CCOCC3)cc2)o1 -23.4%
C/C(N)=C(/C#N)C(=O)CSc1nnc(NC(C)C)s1 18.2%

Taken from the listing, two compounds:
Lipid storage change, negative = inhibition, inconclusive:
CCCCCOc1ccc(C(=O)CCC(=O)Nc2ccc(NC(C)=O)cc2)cc1 13.8%
COc1ccccc1NC(=O)c1ccc(COc2ccccc2Br)o1 -43.1%

Following part:

Lipid storage change, negative = inhibition, inactive:
Cc1cccc(C(=O)NCc2nnc(SCC(=O)Nc3nncs3)n2C)c1 23.4%
O=C(N/N=C/c1sc(N2CCOCC2)nc1-c1ccccc1)c1cccc(S(=O)(=O)N2CCCC2)c1 27.6%

Potency, inconclusive:
CN(Cc1ccccc1)C(=O)CC(=O)N(C)Cc1ccccc1 18.4 µM [falling, partial curve]
CC[C@@H](C)[C@H](CNC)NC[C@@H](Cc1cccc2ccccc12)NCCc1cccc(C(F)(F)F)c1 29.1 µM [falling, single point]
O=C(/C=C/c1ccccc1)NCc1ccco1 6.51 µM [falling, single point]
CC1(C)CC(=O)c2cc(NC(=O)c3ccc(F)cc3)c(=O)oc2C1 29.1 µM [activator, single point]
COc1ccc(-c2cc(C)no2)cc1S(=O)(=O)N(C)c1cccc(C)c1 25.9 µM [falling, single point]
O=C(NCc1cn2ccccc2n1)c1ccc2c(c1)OCO2 11.6 µM [rising, partial curve]
COc1ccc(S(=O)(=O)NCC2CCCN(Cc3ccc(OC)cc3F)C2)cc1 (configuration not stated) 5.8 µM [activator, single point]
CC(C)CCNC(=O)CCCOc1ccccc1 0.0052 µM [falling, full curve, poor fit]
O=C(O)c1ccc(CSCc2ccccc2F)o1 29.1 µM [falling, single point]
CCN(C(=O)CSc1nnc(-c2cccs2)o1)C1CCS(=O)(=O)C1 (configuration not stated) 0.13 µM [falling, single point]
Cc1ccc(S(=O)(=O)N(C)C)cc1NC(=O)C(C)OC(=O)/C=C/c1cccs1 (configuration not stated) 0.146 µM [falling, full curve, poor fit]
NS(=O)(=O)c1ccc(NC(=O)COC(=O)CSc2n[nH]c(-c3ccccc3)n2)cc1 0.146 µM [activator, full curve, poor fit]
Cc1ccsc1/C=N/NC(=O)C(O)c1ccccc1 (configuration not stated) 3.26 µM [activator, partial curve]
CCN1CCN(S(=O)(=O)c2c(C)cc(C)cc2C)CC1 20.6 µM [activator, single point]
Cc1c(Cl)c([N+](=O)[O-])nn1CCCC(=O)Nc1cccc(O)c1 1.46 µM [rising, full curve]
CCOC(=O)/C=C1\CC(=O)Nc2cc(C)c(C)cc2N1 2.31 µM [activator, partial curve]
O=C(NCc1ccc2c(c1)OCO2)c1c[nH]c2ccc(S(=O)(=O)N3CCOCC3)cc2c1=O 7.31 µM [falling, single point]
CN1CCN(c2ccc(Cl)cc2NC(=O)c2ccc(S(=O)(=O)N(C)C)cc2)CC1 5.8 µM [falling, full curve]
Cc1cc(C(=O)Nc2ccc(C#N)cc2)on1 3.26 µM [activator, full curve, poor fit]
COc1ccc(C(CNC(=O)COc2ccc(F)cc2Br)N2CCCC2)cc1 (configuration not stated) 29.1 µM [rising, partial curve, poor fit]

Potency, active:
N#CC1(NC(=O)COc2cc(F)ccc2[N+](=O)[O-])CCCCC1 11.6 µM
